The values that follow come from paper PMC7862700.

Protein sequences, listed by entry. Tags and fused reporters are not part of them. Lines headed by an entry give the natural chain unless they say otherwise; changes in a name come on top.
UniProt O43186: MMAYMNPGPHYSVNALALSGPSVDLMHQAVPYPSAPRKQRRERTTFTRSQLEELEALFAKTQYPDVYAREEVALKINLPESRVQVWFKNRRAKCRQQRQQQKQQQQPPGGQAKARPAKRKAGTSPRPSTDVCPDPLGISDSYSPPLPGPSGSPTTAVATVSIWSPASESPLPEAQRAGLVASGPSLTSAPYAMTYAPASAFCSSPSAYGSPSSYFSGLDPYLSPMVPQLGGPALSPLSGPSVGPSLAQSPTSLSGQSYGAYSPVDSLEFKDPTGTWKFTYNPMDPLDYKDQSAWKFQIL

For assay [1], the target named is CRX (UniProt O43186). Nature of the assay: DAPPL (digital affinity profiling via proximity ligation, sequencing). Particulars: 10 mM Tris-HCl pH 7.5, 50 mM NaCl, 1 mM DTT, 4% glycerol, room temperature, 30 min; GST-TFs on glutathione beads, 16-mer random dsDNA library, 0.1% …; high values mean tight binding; double strand, one strand shown; scale: fold enrichment (6-mer frequency, TF over GST control).

In assay [2] the target is T1, ELF5 (UniProt Q9UKW6-2).
T1 sequence: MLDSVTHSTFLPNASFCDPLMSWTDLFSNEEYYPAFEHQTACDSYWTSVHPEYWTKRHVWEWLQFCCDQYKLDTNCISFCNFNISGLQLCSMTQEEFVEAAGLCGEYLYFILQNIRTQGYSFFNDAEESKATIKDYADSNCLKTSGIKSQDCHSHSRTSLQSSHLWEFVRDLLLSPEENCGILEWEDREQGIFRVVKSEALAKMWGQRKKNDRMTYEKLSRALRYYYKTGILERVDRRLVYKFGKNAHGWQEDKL
The assay is described as above. Particulars: 10 mM Tris-HCl pH 7.5, 50 mM NaCl, 1 mM DTT, 4% glycerol, room temperature, 30 min; GST-TFs on glutathione beads, 16-mer random dsDNA library, 0.1% …; high values mean tight binding; double strand, one strand shown; scale: fold enrichment (6-mer frequency, TF over GST control).

This is a selection; strong and weak results do not stand in their true shares. At the low end of the ranking the order means little.

Turning to ATCAAA, the binding signal in assay [1] was 1.31; in assay [2], 1.02.

As to GATGCA, the binding signal in assay [1] was determined as 0.842; in assay [2], 1.1.

As to TCCATT, the binding signal in assay [1] was found to be 1.35; in assay [2], 1.2.

On to ACACCT, for which the values for the binding signal in assay [1] and in assay [2] were 0.872 and 0.986, respectively.

For AGCAAA, the binding signal came out at 1.05 in assay [1] and 1 in assay [2].

Turning to GGTATC, the binding signal in assay [1] was found to be 0.836; in assay [2] it was 0.993.
